Some of the results follow. These are raw signals, not scaled to a control.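 Primary screen: polymyxin B was added at a level permeabilizing Salmonella outer membranes while sparing inner membranes. DMSO wells, both with and without polymyxin B, established maximum growth. Plate-to-plate variation meant each plate was ranked on its own, and the lowest-OD600 compounds were selected as hits.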
Test system: Salmonella enterica serovar Typhimurium SL1344
Assay: bacterial growth OD600 after 18 h with compound and polymyxin B; higher = more bacterial growth (less inhibition)
Settings: 50 µM, Mueller-Hinton broth

SMILES	bacterial growth OD600 (polymyxin B 0.75 µg/mL)	bacterial growth OD600 (polymyxin B 1 µg/mL)
O=C(c1ccccn1)N1CCCC(CCc2ccc(F)cc2F)C1 (stereo not given)	0.906	–
O=C(NC1CCCC1)c1ccc(N2CCC(NCCc3ccccc3Cl)CC2)cc1	0.727	–
CCOC(=O)C1(Cc2ccc(F)cc2)CCCN(C(C)=O)C1 (stereo not given)	–	0.919
CO[C@H]1[C@H](NC(=O)COc2ccccc2)c2ccccc2C12CCN(C(=O)c1cccc(C)c1C)CC2	0.743	–
O=C(CCOc1ccccc1)Nc1cnn(CC(=O)N2CCCC(COc3ccccc3F)C2)c1 (stereo not given)	0.679	–
O[C@@H]1CN(C/C=C/c2ccc(F)cc2)CC[C@H]1N1CCN(c2ccccn2)CC1	–	0.948
CC#CCN1C(=O)NC(CCCc2ccccc2)(C2CCN(Cc3sccc3C)CC2)C1=O (stereo not given)	0.016	–
CCN1CCN(C(=O)CCC2CCN(C(=O)CCCC(=O)OC)CC2)CC1	–	0.786
COc1ccc(C(=O)N2CCCC(CCC(=O)NCc3ccccc3Cl)C2)cc1OC (stereo not given)	–	0.907
COCCCNc1ncnc2sc(C(=O)N3CCN(C/C=C/c4ccccc4)CC3)c(C)c12	0.823	–
O=C1CC(CC(=O)N2CCCCC2c2cccnc2)(c2ccccc2)C(=O)N1Cc1cccs1 (stereo not given)	0.623	–
O=CN1CCCN(C(=O)CC2(c3ccccc3)CC(=O)N(Cc3ccc4c(c3)OCO4)C2=O)CC1 (stereo not given)	0.993	–
CC(C)NC(=O)C1CCN(C2CCN(C(=O)c3ccc(F)c(Cl)c3)CC2)CC1	–	1
COc1ccc(C(=O)NCC2Cc3cc(-c4nc(C)cnc4C)ccc3O2)c(OC)c1 (stereo not given)	0.859	–
CC(=O)c1cc(CN2CCC(C(=O)Nc3cccc(-c4cscn4)c3)CC2)cs1	–	0.709
COCCC(=O)NCc1ccc2[nH]c(C)c(C)c2c1	0.861	–
Cc1nc(C)c(C(=O)N2CCC3(CC2)CC3C(=O)NCCC(c2ccccc2)c2ccccc2)s1 (stereo not given)	0.794	–
Cc1nc(C(=O)N2CCC(C3(c4ccccn4)NC(=O)N(CCc4cccs4)C3=O)CC2)cs1 (stereo not given)	0.891	–
Nc1cc(C(=O)N2CCC3(CCCN(Cc4ccc(F)c(F)c4)C3)C2)ccn1 (stereo not given)	0.651	–
Cn1nccc1C(=O)N1CCCCC1C(=O)Nc1ccc(Oc2ccccc2F)cc1 (stereo not given)	–	0.891
CN(C(=O)c1coc(COc2ccc(F)cc2)n1)C(C1CC1)C1CC1	–	0.003
Cc1cc(C(=O)N2CCCC(C(=O)Nc3ccccc3Oc3cccnc3)C2)nn1C (stereo not given)	–	0.944
CC(C)=CC(=O)N1CCC(n2nccc2NC(=O)c2ccccc2C)CC1	–	0.876
Cc1ccc(CNCc2c(C(=O)N(C)CCc3ccccc3)nc3sccn23)o1	–	1.04
O=C(CCC1CCN(C(=O)c2cccc(N3CCCC3=O)c2)CC1)NC1CC1	–	0.915
C/C=C(\C)CN1CCC(CCC(=O)Nc2ccc3c(c2)OCCO3)CC1	–	0.856
C=CCC1(CC=C)CCCN1C(=O)CC1C(=O)NCCN1Cc1cccnc1 (stereo not given)	–	0.862
CCCC1(C2CCN(C(=O)C3=CC(=O)CC(C)(C)O3)CC2)NC(=O)N(CCc2ccccn2)C1=O (stereo not given)	0.797	–
Cc1cccc(CN2CCC(N3CCCC(C(=O)NC4CC4)C3)CC2)c1 (stereo not given)	0.79	–
COCCn1cnc2cc(NC(=O)C3CCCCC3)cc(C(=O)N3CCC(c4ccncc4)CC3)c21	0.817	–

Record cards, as listed above. Values in the order: bacterial growth OD600 (polymyxin B 0.75 µg/mL) | bacterial growth OD600 (polymyxin B 1 µg/mL)
`Cc1nc(C(=O)N2CCC(C3(c4ccccn4)NC(=O)N(CCc4cccs4)C3=O)CC2)cs1` (stereo not given) is listed with 0.891 | –
`CC#CCN1C(=O)NC(CCCc2ccccc2)(C2CCN(Cc3sccc3C)CC2)C1=O` (stereo not given) is listed with 0.016 | –

Source: the supplement of paper PMC12889115
